Laboratory results from article PMC10788534.
Results are given in words; binding and its absence hold for the method and conditions named. In cells and extracts the contact can be indirect. These calls come from enrichment with a bait or labelling near it, and not all partners need be listed. No binding means not detected with the bait. Values belong to the molecule of their own block, whether it stands above or below them.

By UniProt entry, the sequences of proteins in these tests, tags left out. Residues count along the entry.
UniProt Q01705, residues 1749-2293: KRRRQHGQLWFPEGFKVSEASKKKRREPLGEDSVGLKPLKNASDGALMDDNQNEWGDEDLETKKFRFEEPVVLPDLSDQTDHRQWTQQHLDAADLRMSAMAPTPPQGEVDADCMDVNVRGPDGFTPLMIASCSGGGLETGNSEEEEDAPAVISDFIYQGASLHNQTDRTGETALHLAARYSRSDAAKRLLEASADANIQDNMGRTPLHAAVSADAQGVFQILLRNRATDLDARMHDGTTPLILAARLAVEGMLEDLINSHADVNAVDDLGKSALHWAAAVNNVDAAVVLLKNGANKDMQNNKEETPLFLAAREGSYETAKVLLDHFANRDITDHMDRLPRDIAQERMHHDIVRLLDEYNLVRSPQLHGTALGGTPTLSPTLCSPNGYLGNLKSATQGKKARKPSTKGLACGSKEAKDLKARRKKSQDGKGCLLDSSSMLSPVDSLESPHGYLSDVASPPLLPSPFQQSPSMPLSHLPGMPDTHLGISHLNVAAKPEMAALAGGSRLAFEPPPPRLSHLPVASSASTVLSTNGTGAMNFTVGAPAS
UniProt Q92841: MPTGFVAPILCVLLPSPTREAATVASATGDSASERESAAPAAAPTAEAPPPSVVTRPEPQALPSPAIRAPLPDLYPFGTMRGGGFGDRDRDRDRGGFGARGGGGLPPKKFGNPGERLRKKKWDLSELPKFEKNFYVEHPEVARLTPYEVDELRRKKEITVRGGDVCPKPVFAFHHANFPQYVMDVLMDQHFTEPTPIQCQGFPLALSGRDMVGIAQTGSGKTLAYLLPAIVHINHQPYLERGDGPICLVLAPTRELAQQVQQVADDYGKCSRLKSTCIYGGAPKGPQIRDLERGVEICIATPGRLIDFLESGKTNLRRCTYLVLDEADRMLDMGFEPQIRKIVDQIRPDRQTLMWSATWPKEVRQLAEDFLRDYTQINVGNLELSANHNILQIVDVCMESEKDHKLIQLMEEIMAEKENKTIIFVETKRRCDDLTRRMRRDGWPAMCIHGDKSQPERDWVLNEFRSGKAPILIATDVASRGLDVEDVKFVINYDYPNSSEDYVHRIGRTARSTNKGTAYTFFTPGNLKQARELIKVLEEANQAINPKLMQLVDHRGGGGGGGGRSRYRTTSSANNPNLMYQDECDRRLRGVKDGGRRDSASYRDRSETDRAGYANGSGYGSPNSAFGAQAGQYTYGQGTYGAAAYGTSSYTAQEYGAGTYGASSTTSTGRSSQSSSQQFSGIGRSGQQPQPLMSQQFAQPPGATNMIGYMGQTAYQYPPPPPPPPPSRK
UniProt Q9BTC0: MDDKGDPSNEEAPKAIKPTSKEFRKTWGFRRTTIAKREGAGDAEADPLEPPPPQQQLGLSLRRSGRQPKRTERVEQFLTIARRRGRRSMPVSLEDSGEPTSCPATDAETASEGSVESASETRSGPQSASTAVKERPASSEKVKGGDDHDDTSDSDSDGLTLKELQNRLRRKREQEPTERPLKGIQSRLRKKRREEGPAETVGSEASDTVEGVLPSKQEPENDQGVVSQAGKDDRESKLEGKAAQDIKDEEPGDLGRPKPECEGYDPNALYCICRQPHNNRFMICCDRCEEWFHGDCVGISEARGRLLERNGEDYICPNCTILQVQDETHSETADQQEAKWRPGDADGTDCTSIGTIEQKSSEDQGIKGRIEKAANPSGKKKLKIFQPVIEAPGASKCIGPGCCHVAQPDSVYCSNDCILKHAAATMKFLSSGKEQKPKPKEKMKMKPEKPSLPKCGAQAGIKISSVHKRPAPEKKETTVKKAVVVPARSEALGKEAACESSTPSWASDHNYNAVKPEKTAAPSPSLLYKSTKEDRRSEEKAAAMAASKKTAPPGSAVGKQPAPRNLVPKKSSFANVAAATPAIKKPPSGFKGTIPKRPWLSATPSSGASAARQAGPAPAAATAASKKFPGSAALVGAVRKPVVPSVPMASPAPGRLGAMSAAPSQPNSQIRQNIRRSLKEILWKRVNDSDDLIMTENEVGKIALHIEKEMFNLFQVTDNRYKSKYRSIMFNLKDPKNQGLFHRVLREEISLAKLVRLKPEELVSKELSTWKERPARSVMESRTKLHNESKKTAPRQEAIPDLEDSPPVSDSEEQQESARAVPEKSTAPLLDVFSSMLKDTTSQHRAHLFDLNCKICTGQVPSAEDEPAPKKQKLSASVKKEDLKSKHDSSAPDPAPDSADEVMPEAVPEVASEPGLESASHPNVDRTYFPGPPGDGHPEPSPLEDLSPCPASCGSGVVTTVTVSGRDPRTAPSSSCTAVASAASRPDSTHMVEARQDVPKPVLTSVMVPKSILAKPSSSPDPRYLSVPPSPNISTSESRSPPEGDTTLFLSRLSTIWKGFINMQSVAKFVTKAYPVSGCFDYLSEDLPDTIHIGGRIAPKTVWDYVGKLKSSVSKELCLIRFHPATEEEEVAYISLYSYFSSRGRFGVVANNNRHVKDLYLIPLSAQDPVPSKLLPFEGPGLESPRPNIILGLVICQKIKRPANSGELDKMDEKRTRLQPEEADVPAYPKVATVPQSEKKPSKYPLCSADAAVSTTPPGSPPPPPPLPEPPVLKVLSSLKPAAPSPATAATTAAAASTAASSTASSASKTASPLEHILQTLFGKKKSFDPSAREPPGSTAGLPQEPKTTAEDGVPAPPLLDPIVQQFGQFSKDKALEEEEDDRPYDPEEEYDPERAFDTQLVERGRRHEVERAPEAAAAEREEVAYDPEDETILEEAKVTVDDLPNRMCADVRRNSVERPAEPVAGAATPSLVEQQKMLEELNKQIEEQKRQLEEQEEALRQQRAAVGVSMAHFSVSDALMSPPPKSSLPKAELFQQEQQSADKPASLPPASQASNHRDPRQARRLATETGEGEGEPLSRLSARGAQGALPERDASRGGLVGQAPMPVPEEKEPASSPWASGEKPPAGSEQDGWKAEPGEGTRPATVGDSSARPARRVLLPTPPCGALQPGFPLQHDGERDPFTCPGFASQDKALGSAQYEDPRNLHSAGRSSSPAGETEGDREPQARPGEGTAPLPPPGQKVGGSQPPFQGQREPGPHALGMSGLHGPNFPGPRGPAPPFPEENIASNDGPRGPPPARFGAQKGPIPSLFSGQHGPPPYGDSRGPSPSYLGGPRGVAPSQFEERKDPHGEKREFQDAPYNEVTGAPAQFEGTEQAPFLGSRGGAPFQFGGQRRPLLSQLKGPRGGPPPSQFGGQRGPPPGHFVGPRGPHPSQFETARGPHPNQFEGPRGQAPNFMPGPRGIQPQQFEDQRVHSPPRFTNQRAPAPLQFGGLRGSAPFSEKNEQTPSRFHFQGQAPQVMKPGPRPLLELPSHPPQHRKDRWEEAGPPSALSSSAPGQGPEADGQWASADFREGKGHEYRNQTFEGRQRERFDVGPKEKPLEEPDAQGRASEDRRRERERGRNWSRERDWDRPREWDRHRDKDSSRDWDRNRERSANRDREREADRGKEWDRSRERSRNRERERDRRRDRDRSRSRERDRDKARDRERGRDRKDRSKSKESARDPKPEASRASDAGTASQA
UniProt Q96BD5: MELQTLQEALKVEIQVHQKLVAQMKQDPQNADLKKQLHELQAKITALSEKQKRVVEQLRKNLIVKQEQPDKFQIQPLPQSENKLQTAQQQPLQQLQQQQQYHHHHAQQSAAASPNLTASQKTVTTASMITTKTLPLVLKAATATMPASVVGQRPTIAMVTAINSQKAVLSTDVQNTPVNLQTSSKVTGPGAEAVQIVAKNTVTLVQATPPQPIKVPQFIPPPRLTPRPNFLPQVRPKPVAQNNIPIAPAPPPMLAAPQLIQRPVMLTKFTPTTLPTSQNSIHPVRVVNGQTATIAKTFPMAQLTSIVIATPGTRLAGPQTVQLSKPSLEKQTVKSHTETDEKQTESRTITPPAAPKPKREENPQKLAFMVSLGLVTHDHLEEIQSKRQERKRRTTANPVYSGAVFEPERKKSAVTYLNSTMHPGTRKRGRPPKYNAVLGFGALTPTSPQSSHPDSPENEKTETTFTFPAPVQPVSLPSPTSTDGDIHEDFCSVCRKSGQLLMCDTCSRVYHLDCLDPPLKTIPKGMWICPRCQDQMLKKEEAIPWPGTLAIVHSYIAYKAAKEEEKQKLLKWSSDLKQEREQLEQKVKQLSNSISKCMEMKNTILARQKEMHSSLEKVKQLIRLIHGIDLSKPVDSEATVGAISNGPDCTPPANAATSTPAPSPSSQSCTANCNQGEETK
UniProt P84095: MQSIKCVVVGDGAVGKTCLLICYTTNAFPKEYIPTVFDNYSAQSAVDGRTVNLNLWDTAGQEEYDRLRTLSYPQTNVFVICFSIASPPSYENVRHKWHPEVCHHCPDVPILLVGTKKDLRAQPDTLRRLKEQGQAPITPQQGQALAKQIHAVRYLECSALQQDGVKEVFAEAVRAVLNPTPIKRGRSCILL
UniProt O95785: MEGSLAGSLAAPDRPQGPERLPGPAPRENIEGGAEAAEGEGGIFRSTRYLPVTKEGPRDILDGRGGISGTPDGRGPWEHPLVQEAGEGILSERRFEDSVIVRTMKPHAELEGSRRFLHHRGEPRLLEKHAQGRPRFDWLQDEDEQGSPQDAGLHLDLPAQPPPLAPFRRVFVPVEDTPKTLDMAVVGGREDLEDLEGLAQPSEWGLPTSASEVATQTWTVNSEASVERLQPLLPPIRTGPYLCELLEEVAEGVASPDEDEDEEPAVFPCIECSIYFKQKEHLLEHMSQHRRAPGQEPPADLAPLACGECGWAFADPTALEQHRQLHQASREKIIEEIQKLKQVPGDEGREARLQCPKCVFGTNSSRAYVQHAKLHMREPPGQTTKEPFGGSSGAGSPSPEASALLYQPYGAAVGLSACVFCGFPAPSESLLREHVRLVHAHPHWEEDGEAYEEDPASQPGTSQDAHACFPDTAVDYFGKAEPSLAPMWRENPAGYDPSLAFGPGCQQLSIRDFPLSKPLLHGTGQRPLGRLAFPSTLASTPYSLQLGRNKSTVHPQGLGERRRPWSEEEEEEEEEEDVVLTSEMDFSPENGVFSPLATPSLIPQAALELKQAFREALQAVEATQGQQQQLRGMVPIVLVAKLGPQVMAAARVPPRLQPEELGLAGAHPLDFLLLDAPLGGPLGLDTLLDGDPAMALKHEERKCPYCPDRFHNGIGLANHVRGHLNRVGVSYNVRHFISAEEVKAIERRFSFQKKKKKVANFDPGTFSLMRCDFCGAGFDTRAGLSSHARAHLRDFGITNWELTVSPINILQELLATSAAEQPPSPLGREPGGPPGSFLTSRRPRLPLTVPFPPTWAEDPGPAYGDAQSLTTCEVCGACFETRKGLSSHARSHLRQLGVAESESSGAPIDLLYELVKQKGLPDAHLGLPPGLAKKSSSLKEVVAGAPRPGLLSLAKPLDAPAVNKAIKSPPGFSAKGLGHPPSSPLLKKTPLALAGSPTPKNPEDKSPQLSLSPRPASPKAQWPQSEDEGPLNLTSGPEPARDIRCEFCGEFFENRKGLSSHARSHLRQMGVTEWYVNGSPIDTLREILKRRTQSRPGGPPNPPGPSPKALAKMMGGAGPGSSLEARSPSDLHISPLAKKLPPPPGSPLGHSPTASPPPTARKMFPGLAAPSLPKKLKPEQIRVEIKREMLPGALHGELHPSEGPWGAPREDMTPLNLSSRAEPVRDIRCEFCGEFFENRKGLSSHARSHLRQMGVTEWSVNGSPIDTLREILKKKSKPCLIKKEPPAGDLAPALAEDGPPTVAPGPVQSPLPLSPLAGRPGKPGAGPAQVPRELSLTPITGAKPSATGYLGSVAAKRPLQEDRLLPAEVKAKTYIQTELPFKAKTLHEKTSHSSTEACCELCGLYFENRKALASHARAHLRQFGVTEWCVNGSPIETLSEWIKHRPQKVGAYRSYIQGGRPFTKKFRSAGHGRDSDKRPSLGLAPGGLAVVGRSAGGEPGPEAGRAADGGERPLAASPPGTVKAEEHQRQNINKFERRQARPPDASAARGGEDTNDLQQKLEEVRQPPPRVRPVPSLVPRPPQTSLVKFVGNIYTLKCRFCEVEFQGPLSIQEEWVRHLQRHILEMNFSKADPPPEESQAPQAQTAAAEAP
UniProt Q969G3: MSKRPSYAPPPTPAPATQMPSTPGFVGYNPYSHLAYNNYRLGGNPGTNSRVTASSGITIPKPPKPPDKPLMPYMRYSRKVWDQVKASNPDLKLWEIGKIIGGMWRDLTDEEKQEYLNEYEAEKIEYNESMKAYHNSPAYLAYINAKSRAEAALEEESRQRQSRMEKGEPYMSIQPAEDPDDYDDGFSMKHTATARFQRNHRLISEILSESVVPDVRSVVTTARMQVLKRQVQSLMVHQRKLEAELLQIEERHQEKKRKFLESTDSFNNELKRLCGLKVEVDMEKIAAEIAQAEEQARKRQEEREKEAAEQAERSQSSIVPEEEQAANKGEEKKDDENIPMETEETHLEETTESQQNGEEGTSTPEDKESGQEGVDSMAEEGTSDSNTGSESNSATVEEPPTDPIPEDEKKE

Target: BioID2-NICD (HEK293 or NIH3T3 stable line; the text does not tell which) (mouse) (UniProt Q01705)
Experiment: proximity labelling; BioID as in HEK293 and NIH3T3 stable lines; results told for the study as a whole (core-proximal proteins found in at least two of HEK293, 3T3 and BioGRID, and others) without naming the cell line

Molecule: CFDP1 (from UniProt Q9UEE9 1-299)
binding: binds

Molecule: CHD4 (from UniProt Q14839 1-1912)
binding: binds

Molecule: DDX17 (from UniProt Q92841 1-729)
binding: binds

Molecule: DHX15 (BioID prey) (from UniProt O43143 1-795)
binding: binds

Molecule: DIDO1 (from UniProt Q9BTC0 1-2240)
binding: binds

Molecule: LIN54 (from UniProt Q6MZP7 1-749)
binding: binds

Molecule: NCOR1 (from UniProt O75376 1-2440)
binding: binds

Molecule: PHF21A (from UniProt Q96BD5 1-680)
binding: binds

Molecule: PIAS2 (from UniProt O75928 1-621)
binding: binds

Molecule: RAI1 (from UniProt Q7Z5J4 1-1906)
binding: binds

Molecule: Rho GTPase family member RhoG (from UniProt P84095 1-191)
binding: binds

Molecule: TCF20 (from UniProt Q9UGU0 1-1960)
binding: binds

Molecule: TRIM33 (from UniProt Q9UPN9 1-1127)
binding: binds

Molecule: USP7 (from UniProt Q93009 1-1102)
binding: binds

Molecule: WIZ (from UniProt O95785 1-1651)
binding: binds

Molecule: histone deacetylase (HDAC)1 (BioID prey) (from UniProt Q13547 1-482)
binding: binds

Molecule: histone demethylase Jumonji domain containing 1C (JMJD1C) (from UniProt Q15652 1-2540)
binding: binds

Molecule: kinase CDK8 (from UniProt P49336 1-464)
binding: no binding

B2: MARCKS (protein, UniProt P29966 1-332)
chain: MGAQFSKTAAKGEAAAERPGEAAVASSPSKANGQENGHVKVNGDASPAAAESGAKEELQANGSAPAADKEEPAAAGSGAASPSAAEKGEPAAAAAPEAGASPVEKEAPAEGEAAEPGSPTAAEGEAASAASSTSSPKAEDGATPSPSNETPKKKKKRFSFKKSFKLSGFSFKKNKKEAGEGGEAEAPAAEGGKDEAAGGAAAAAAEAGAASGEQAAAPGEEAAAGEEGAAGGDPQEAKPQEAAVAPEKPPASDETKAAEEPSKVEEKKAEEAGASAAACEAPSAAGPGAPPEQEAAPAEEPAAAAASSACAAPSQEAQPECSPEAPPAEAAE
binding: binds

B5: FLOT1 (protein, UniProt O75955 1-427)
chain: MFFTCGPNEAMVVSGFCRSPPVMVAGGRVFVLPCIQQIQRISLNTLTLNVKSEKVYTRHGVPISVTGIAQVKIQGQNKEMLAAACQMFLGKTEAEIAHIALETLEGHQRAIMAHMTVEEIYKDRQKFSEQVFKVASSDLVNMGISVVSYTLKDIHDDQDYLHSLGKARTAQVQKDARIGEAEAKRDAGIREAKAKQEKVSAQYLSEIEMAKAQRDYELKKAAYDIEVNTRRAQADLAYQLQVAKTKQQIEEQRVQVQVVERAQQVAVQEQEIARREKELEARVRKPAEAERYKLERLAEAEKSQLIMQAEAEAASVRMRGEAEAFAIGARARAEAEQMAKKAEAFQLYQEAAQLDMLLEKLPQVAEEISGPLTSANKITLVSSGSGTMGAAKVTGEVLDILTRLPESVERLTGVSISQVNHKPLRTA
binding: binds

Next, values leading:

binding: binds
Molecule: CTBP2 (from UniProt P56545 1-445)

binding: no binding
Molecule: HDAC3 (from UniProt O15379 1-428)

binding: binds
Molecule: NCOA6 (from UniProt Q14686 1-2063)

binding: binds
Molecule: RBBP6 (from UniProt Q7Z6E9 1-1792)

binding: binds
Molecule: RBM10 (from UniProt P98175 1-930)

binding: binds
Molecule: SMARCC2 (from UniProt Q8TAQ2 1-1214)

binding: binds
Molecule: SMARCE1 (from UniProt Q969G3 1-411)

binding: binds
Molecule: TOP2B (from UniProt Q02880 1-1626)

binding: binds
Molecule: USP34 (from UniProt Q70CQ2 1-3546)

binding: binds
Molecule: XPO5 (from UniProt Q9HAV4 1-1204)

binding: binds
Molecule: ZMYM4 (from UniProt Q5VZL5 1-1548)

binding: binds
Molecule: β-catenin (CTNNB1) (from UniProt P35222 1-781)

binding: binds
B1: PDS5A (protein, UniProt Q29RF7 1-1337)
chain: MDFTAQPKPATALCGVVSADGKIAYPPGVKEITDKITTDEMIKRLKMVVKTFMDMDQDSEDEKQQYLPLALHLASEFFLRNPNKDVRLLVACCLADIFRIYAPEAPYTSHDKLKDIFLFITRQLKGLEDTKSPQFNRYFYLLENLAWVKSYNICFELEDCNEIFIQLFRTLFSVINNSHNKKVQMHMLDLMSSIIMEGDGVTQELLDSILINLIPAHKNLNKQSFDLAKVLLKRTVQTIEACIANFFNQVLVLGRSSVSDLSEHVFDLIQELFAIDPHLLLSVMPQLEFKLKSNDGEERLAVVRLLAKLFGSKDSDLATQNRPLWQCFLGRFNDIHVPVRLESVKFASHCLMNHPDLAKDLTEYLKVRSHDPEEAIRHDVIVTIITAAKRDLALVNDQLLGFVRERTLDKRWRVRKEAMMGLAQLYKKYCLHGEAGKEAAEKVSWIKDKLLHIYYQNSIDDKLLVEKIFAQYLVPHNLETEERMKCLYYLYASLDPNAVKALNEMWKCQNMLRSHVRELLDLHKQPTSEANCSAMFGKLMTIAKNLPDPGKAQDFVKKFNQVLGDDEKLRSQLELLISPTCSCKQADICVREIARKLANPKQPTNPFLEMVKFLLERIAPVHIDSEAISALVKLMNKSIEGTADDEEEGVSPDTAIRSGLELLKVLSFTHPTSFHSAETYESLLQCLRMEDDKVAEAAIQIFRNTGHKIETDLPQIRSTLIPILHQKAKRGTPHQAKQAVHCIHAIFTNKEVQLAQIFEPLSRSLNADVPEQLITPLVSLGHISMLAPDQFASPMKSVVANFIVKDLLMNDRSTGEKNGKLWSPDEEVSPEVLAKVQAIKLLVRWLLGMKNNQSKSANSTLRLLSAMLVSEGDLTEQKRISKSDMSRLRLAAGSAIMKLAQEPCYHEIITPEQFQLCALVINDECYQVRQIFAQKLHKALVKLLLPLEYMAIFALCAKDPVKERRAHARQCLLKNISIRREYIKQNPMATEKLLSLLPEYVVPYMIHLLAHDPDFTRSQDVDQLRDIKECLWFMLEVLMTKNENNSHAFMKKMAENIKLTRDAQSPDESKTNEKLYTVCDVALCVINSKSALCNADSPKDPVLPMKFFTQPEKDFCNDKSYISEETRVLLLTGKPKPAGVLGAVNKPLSATGRKPYVRSTGTETGSNINVNSELNPSTGNRSREQSSEAAETGVSENEENPVRIISVTPVKNIDPVKNKEINSDQATQGNISSDRGKKRTVTAAGAENIQQKTDEKVDESGPPAPSKPRRGRRPKSESQGNATKNDDLNKPINKGRKRAAVGQESPGGLEAGNAKAPKLQDLAKKAAPAERQIDLQR

binding: binds
B3: AKR1A1 (protein, UniProt P14550 1-325)
chain: MAASCVLLHTGQKMPLIGLGTWKSEPGQVKAAVKYALSVGYRHIDCAAIYGNEPEIGEALKEDVGPGKAVPREELFVTSKLWNTKHHPEDVEPALRKTLADLQLEYLDLYLMHWPYAFERGDNPFPKNADGTICYDSTHYKETWKALEALVAKGLVQALGLSNFNSRQIDDILSVASVRPAVLQVECHPYLAQNELIAHCQARGLEVTAYSPLGSSDRAWRDPDEPVLLEEPVVLALAEKYGRSPAQILLRWQVQRKVICIPKSITPSRILQNIKVFDFTFSPEEMKQLNALNKNWRYIVPMLTVDGKRVPRDAGHPLYPFNDPY

binding: binds
B4: RBM33 (protein, UniProt Q96EV2 1-1170)
chain: MAAALGASGGAGAGDDDFDQFDKPGAERSWRRRAADEDWDSELEDDLLGEDLLSGKKNQSDLSDEELNDDLLQSDNEDEENFSSQGVTISLNATSGMVTSFELSDNTNDQSGEQESEYEQEQGEDELVYHKSDGSELYTQEYPEEGQYEGHEAELTEDQIEYVEEPEEEQLYTDEVLDIEINEPLDEFTGGMETLELQKDIKEESDEEEEDDEESGRLRFKTERKEGTIIRLSDVTRERRNIPETLELSAEAKAALLEFEERERQHKQGRYSSRRGGRRGGPLMCRGVGDQRRESTERGRMKDHRPALLPTQPPVVPQAPPPPPPPPQQQPIRSLFQPQPLQPLLPVQHPHHPSPPQGMHMPPQLETPRMMMTPPPVTPQQPKNIHINPHFKGTVVTPVQVPLLPVPSQPRPAVGPQRFPGPPEFPQHTPGPVPNSFSQPPRLPLQDQWRAPPPPQDRDPFFLGVSGEPRFPSHLFLEQRSPPPPPPPPTLLNSSHPVPTQSPLPFTQPGPAFNQQGQQPVFPRERPVRPALQPPGPVGILHFSQPGSATTRPFIPPRQPFLPGPGQPFLPTHTQPNLQGPLHPPLPPPHQPQPQQPQQQPPPQHQPPHQPPHQPPPQHQPPPQHPPQHPPQHQHHHHHHHLSVPPPPLMPMSQPQFRPHVQTAQPQASSSRMQCPQRQGLRHNTTSQNVSKRPMQQMQPTAPRNSNLRELPIAPSHVIEMSSSRCSATPSAQVKPIVSASPPSRAVAGSRSSQGKTEVKVKPASPVAQPKEEAKTETEFPDEDEETRLYRLKIEEQKRLREEILKQKELRRQQQAGARKKELLERLAQQQQQLYAPPPPAEQEEQALSPSPTNGNPLLPFPGAQVRQNVKNRLLVKNQDVSISNVQPKTSNFVPSSANMQYQGQQMKALKHLRQTRTVPQSQTQPLHKVLPIKPADVEEPAVPQTPRVASIQGRPQDTKPGVKRTVTHRTNSGGGDGPHISSKVRVIKLSGGGGESDGFFHPEGQPQRLPQPPEVGPQPARKVTLTRGGLQQPPHLPAGPHAHSPVPPGIKSIQGIHPAKKAIMHGRGRGVAGPMGRGRLMPNKQNLRVVECKPQPCVVSVEGLSSSTTDAQLKSLLMSVGPIQSLQMLPQQRKAIAKFKEPAHALAFQQKFHRHMIDLSHINVALIVE
